Reference: patent US20200262930A1 (YALE UNIVERSITY, published 2020)
No constants are given. Whether binding was seen depends on the method and setting. Some results given as binding are weak or reduced against the parent protein; the word gives no strength.

Key:
[1] = target: primate (Cynomolgus monkey) CHI3L1/YKL-40 (Cynomolgus monkey); experiment: titration ELISA (FIG. 10)
[2] = target: primate (Cynomolgus monkey) CHI3L1/YKL-40 (Cynomolgus monkey); experiment: Western blot, SDS-PAGE (reduced) and native PAGE, 500 ng/lane recombinant protein
[3] = target: primate (Cynomolgus monkey) CHI3L1/YKL-40 (Cynomolgus monkey); experiment: titration ELISA

Binder	binding [1]	binding [2]	binding [3]
H1-L1 (humanized anti-YKL-40 antibody) (antibody, V domains shown, Humanized, kappa light chain, human IgG (detected with goat anti-human IgG-HRP; the PK assay uses an anti-IgG1 capture antibody); also called anti-YKL-40 H1-L1) VH: QIQLVQSGSELKKPGASVKISCKASGYTFTNYGMNWVRQAPGQGLEWMGWINTYTGEPTYADDFKGRFVFSLDTSVSTAYLQISSLKAEDTSVYFCARLGYGKFYVMDYWGQGTSVTVSS VL: DVVMTQSPLSLPVTLGQPASISCRSSQSLVHSNGNTYLNWYQQRPGQSPRLLIYKVSNRFSGVPDRFSGSGSGTDFTLKISRVEAEDVGVYFCSQSTHVTWTFGGGTKLEIK	binds	binds	binds
H4-L1 (humanized anti-YKL-40 antibody) (antibody, V domains shown, Humanized, human IgG (detected with goat anti-human IgG-HRP)) VH: QIQLVQSGSELKKPGASVKISCKASGYTFTNYGMNWVRQAPGQGLKWMGWINTYTGEPTYADDFKGRFVFSLDTSVSTAYLQISSLKAEDTSVYFCARLGYGKFYVMDYWGQGTSVTVSS VL: DVVMTQSPLSLPVTLGQPASISCRSSQSLVHSNGNTYLNWYQQRPGQSPRLLIYKVSNRFSGVPDRFSGSGSGTDFTLKISRVEAEDVGVYFCSQSTHVTWTFGGGTKLEIK	–	binds	binds
H11-L1 (humanized anti-YKL-40 antibody) (antibody, V domains shown, Humanized, human IgG) VH: QIQLVQSGPEVKQPGASVKISCKASGYTFTNYGMNWVKQAPGQGLKWMGWINTYTGEPTYAQGFTGRFVFSLDTSASTAYLQISSLKAEDMSTYFCARLGYGKFYVMDYWGQGTSVTVSS VL: DVVMTQSPLSLPVTLGQPASISCRSSQSLVHSNGNTYLNWYQQRPGQSPRLLIYKVSNRFSGVPDRFSGSGSGTDFTLKISRVEAEDVGVYFCSQSTHVTWTFGGGTKLEIK	–	–	binds
